PubChem BioAssay AID1259254 | NCATS – 2017

- Assay: 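Genome-wide screen for genes that prevent DNA re-replication in cancer cells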 (primary screen)
- Cells: human HCT116 colorectal cancer cells
- Reagent: single siRNA against human genes
- Time to read-out: 3 days
- Measured: 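Imaged Hoechst DNA stain sorts each cell into a cycle phase by DNA amount; per plate, G2 fraction set to 0% for non-targeting and 100% for GMNN siRNA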
- Direction: G2 robust z-score: higher = more G2 cells, more excess DNA replication
- Active means: 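Active siRNAs have a G2 robust z of 5 or more median absolute deviations over the median, which in these data means about 38% or higher of GMNN control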
In all, the deposit lists about 59,000 reagents; below is an unselected part. About 1,550 of all reagents (2.6%) were called active. 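G2 share is only a proxy for re-replication; each gene was hit by three separate siRNAs, and active genes were retested.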 Reagents against one gene are numbered here. Not all columns of the deposit are shown. No sequences are given here. Not stated in the record: the amount of reagent.

{"gene": "RSF1 (remodeling and spacing factor 1)", "siRNA no.": 1, "G2 robust z-score": 0.186, "Call": "inactive"}
{"gene": "RSF1 (remodeling and spacing factor 1)", "siRNA no.": 2, "G2 robust z-score": 0.74, "Call": "inactive"}
{"gene": "RSF1 (remodeling and spacing factor 1)", "siRNA no.": 3, "G2 robust z-score": 0.162, "Call": "inactive"}
{"gene": "PNISR (PNN interacting serine and arginine rich protein)", "siRNA no.": 1, "G2 robust z-score": -0.452, "Call": "inactive"}
{"gene": "PNISR (PNN interacting serine and arginine rich protein)", "siRNA no.": 2, "G2 robust z-score": -0.0625, "Call": "inactive"}
{"gene": "PNISR (PNN interacting serine and arginine rich protein)", "siRNA no.": 3, "G2 robust z-score": -0.393, "Call": "inactive"}
{"gene": "ADORA3 (adenosine A3 receptor)", "siRNA no.": 1, "G2 robust z-score": 2.65, "Call": "inactive"}
{"gene": "ADORA3 (adenosine A3 receptor)", "siRNA no.": 2, "G2 robust z-score": 1.17, "Call": "inactive"}
{"gene": "ADORA3 (adenosine A3 receptor)", "siRNA no.": 3, "G2 robust z-score": -1.15, "Call": "inactive"}
{"gene": "AVL9 (AVL9 cell migration associated)", "siRNA no.": 1, "G2 robust z-score": 1.61, "Call": "inactive"}
{"gene": "AVL9 (AVL9 cell migration associated)", "siRNA no.": 2, "G2 robust z-score": 0.465, "Call": "inactive"}
{"gene": "AVL9 (AVL9 cell migration associated)", "siRNA no.": 3, "G2 robust z-score": -0.654, "Call": "inactive"}
{"gene": "PATE1 (prostate and testis expressed 1)", "siRNA no.": 1, "G2 robust z-score": 0.368, "Call": "inactive"}
{"gene": "PATE1 (prostate and testis expressed 1)", "siRNA no.": 2, "G2 robust z-score": 2.47, "Call": "inactive"}
{"gene": "PATE1 (prostate and testis expressed 1)", "siRNA no.": 3, "G2 robust z-score": -0.704, "Call": "inactive"}
{"gene": "BCAP29 (B cell receptor associated protein 29)", "siRNA no.": 1, "G2 robust z-score": -0.0457, "Call": "inactive"}
{"gene": "BCAP29 (B cell receptor associated protein 29)", "siRNA no.": 2, "G2 robust z-score": 1.47, "Call": "inactive"}
{"gene": "BCAP29 (B cell receptor associated protein 29)", "siRNA no.": 3, "G2 robust z-score": -0.995, "Call": "inactive"}

The list goes on, starting with the last 4 of the part before.
{"gene": "PATE1 (prostate and testis expressed 1)", "siRNA no.": 3, "G2 robust z-score": -0.704, "Call": "inactive"}
{"gene": "BCAP29 (B cell receptor associated protein 29)", "siRNA no.": 1, "G2 robust z-score": -0.0457, "Call": "inactive"}
{"gene": "BCAP29 (B cell receptor associated protein 29)", "siRNA no.": 2, "G2 robust z-score": 1.47, "Call": "inactive"}
{"gene": "BCAP29 (B cell receptor associated protein 29)", "siRNA no.": 3, "G2 robust z-score": -0.995, "Call": "inactive"}
{"gene": "MSN (moesin)", "siRNA no.": 1, "G2 robust z-score": -0.387, "Call": "inactive"}
{"gene": "MSN (moesin)", "siRNA no.": 2, "G2 robust z-score": 0.6, "Call": "inactive"}
{"gene": "MSN (moesin)", "siRNA no.": 3, "G2 robust z-score": 2.61, "Call": "inactive"}
{"gene": "MBD1 (methyl-CpG binding domain protein 1)", "siRNA no.": 1, "G2 robust z-score": -0.772, "Call": "inactive"}
{"gene": "MBD1 (methyl-CpG binding domain protein 1)", "siRNA no.": 2, "G2 robust z-score": -1.01, "Call": "inactive"}
{"gene": "MBD1 (methyl-CpG binding domain protein 1)", "siRNA no.": 3, "G2 robust z-score": -1.23, "Call": "inactive"}
{"gene": "LZTFL1 (leucine zipper transcription factor like 1)", "siRNA no.": 1, "G2 robust z-score": 6.1, "Call": "active"}
{"gene": "LZTFL1 (leucine zipper transcription factor like 1)", "siRNA no.": 2, "G2 robust z-score": 0.526, "Call": "inactive"}
{"gene": "LZTFL1 (leucine zipper transcription factor like 1)", "siRNA no.": 3, "G2 robust z-score": -0.0804, "Call": "inactive"}
{"gene": "TRAF4 (TNF receptor associated factor 4)", "siRNA no.": 1, "G2 robust z-score": -0.605, "Call": "inactive"}
{"gene": "TRAF4 (TNF receptor associated factor 4)", "siRNA no.": 2, "G2 robust z-score": 2.23, "Call": "inactive"}
{"gene": "TRAF4 (TNF receptor associated factor 4)", "siRNA no.": 3, "G2 robust z-score": 0.775, "Call": "inactive"}
